Measured values reported in patent US20050063973A1 (URIFER, published 2005).
Results are given in words; binding and its absence hold for the method and conditions named. Binding seen in cells or lysates may run through a third protein. Some results given as binding are weak or reduced against the parent protein; the word gives no strength.

Amino acid sequences for entries named in this document (tags omitted).
UniProt P70451: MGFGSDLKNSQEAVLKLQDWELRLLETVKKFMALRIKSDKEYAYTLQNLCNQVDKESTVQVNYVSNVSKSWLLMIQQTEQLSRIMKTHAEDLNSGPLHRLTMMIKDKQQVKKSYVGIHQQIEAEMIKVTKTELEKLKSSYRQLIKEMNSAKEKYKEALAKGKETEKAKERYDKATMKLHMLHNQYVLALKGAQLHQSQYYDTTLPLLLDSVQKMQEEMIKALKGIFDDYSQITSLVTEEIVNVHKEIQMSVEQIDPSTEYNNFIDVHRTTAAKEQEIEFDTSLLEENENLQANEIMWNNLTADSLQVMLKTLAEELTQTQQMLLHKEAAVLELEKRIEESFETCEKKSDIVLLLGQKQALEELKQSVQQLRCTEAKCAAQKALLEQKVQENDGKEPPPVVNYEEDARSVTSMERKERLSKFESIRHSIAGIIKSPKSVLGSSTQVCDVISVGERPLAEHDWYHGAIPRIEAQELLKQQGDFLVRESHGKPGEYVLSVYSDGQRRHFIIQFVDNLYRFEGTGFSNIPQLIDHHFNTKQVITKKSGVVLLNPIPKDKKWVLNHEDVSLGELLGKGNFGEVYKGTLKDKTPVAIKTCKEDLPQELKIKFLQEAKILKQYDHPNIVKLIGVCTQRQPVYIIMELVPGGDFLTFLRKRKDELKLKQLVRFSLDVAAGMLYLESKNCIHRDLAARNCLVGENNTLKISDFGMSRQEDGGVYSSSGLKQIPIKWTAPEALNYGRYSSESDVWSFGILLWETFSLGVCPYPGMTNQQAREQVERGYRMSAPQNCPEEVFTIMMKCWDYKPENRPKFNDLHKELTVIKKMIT

Experiments:
[1] = target: Fer tyrosine kinase (endogenous protein of C2C12 cells) (UniProt P70451); experiment: co-immunoprecipitation
[2] = target: Fer tyrosine kinase (endogenous protein of C2C12 cells) (UniProt P70451); experiment: co-immunoprecipitation from C2C12 extracts
[3] = target: Fer tyrosine kinase (endogenous protein of C2C12 cells) (UniProt P70451); experiment: co-immunoprecipitation from MG132 treated C2C12 cells
[4] = target: Fer tyrosine kinase (endogenous protein of C2C12 cells) (UniProt P70451); experiment: co-immunoprecipitation with αTMF/ARA160, Western blot with αFER (FIG. 5)
[5] = target: Fer tyrosine kinase (endogenous protein of C2C12 cells) (UniProt P70451); experiment: co-immunoprecipitation with αTMF/ARA160 from C2C12 extracts, Western blot with αFer

binding [1]: binds
binding [2]: binds
binding [3]: binds
binding [4]: binds
binding [5]: binds
B1: TMF/ARA160 (endogenous protein of C2C12, NIH3T3 and T127 cells) (protein, UniProt B9EKI3 1-1091, looked up)
chain: MSWFNASQLSSFAKQALSQAQKSIDRVLDIQEEEPSAWAEAIPYGEPGISPPVSGGWDTSTWGLNSTSSEPQSPPTASQAITKPVRRTVVDESENFFSAFLSPSDAHTIQKSPVVSKPPSKSQRPEEEVKSSLQESSSPGQSRVSETAEVRDSVCVSGETSAVGTPSPVPEDKHEETAGEESEVKVPTVRLKASENVVNVNTTEDVSTTSTQSLTAETKDMALEPKEQKHEDRQSNTPSPPVSSFSSGTSTTSDIEVLDHESVISESSASSRQETSDAKSSLHLMQTSFQLLSASACPEYSRLDDFQKLNESCCSSDAFERIDSFSVQSLDSRSVSEINSDDELPGKGYALVPIIVSPSTPKTKVVESTEENAEEEEGNETLVAPSEEAELEESGRSATPVNCDQPDILASPTAGSGGHSASGPATEQCEAVENQPKAPPEKEDVCKTVEFLNEKLEKRETQLLSLSKEKALLEEAYDNLKDEMFRVKEESSSISSLKDEFTQRIAEAEKKVQLACKERDAAKKEMKTIKEELATRLNSSQTADLLKEKDEQIQGLMEEGEKLSKQQLHNSNIIKKLRAKDKDNENVIAKLNRKAKELEEELQHLRQVLDGKEEVEKQHRENIKKLNSVVERQEKDLGRLQVDMDELEEKSRSTQAALDSAYRELTDLHKANAAKDSEVQEAALRREMKAKEELSGALEKAQEEARQQQEALVLQVGDLRLALQRAEQAAARKEDYLRHEISELQQRLQEAENRNQELSQSVSSTARPLLRQIENLQATLGSQTSSWETLEKSLSDRLGESQTLLAAAVERERAATEELLANKIQMSSVESQNTLLRQENSRLQAQLESEKNKLRKLEDENSRYQVELENLKDEYVRTLEESRKEKTLLSSQLEMERMKVEQERKKTIFTQEALKEKDHKLFSVCSTPTMSRSSSISGVDAAGLQASFLSQDESHDHSFGPMSTSASGSNLYEAVRMGAGSSIIENLQSQLKLREGEISHLQLEISNLEKTRSIMSEELVKLTNQNDELEEKVKEIPKLRVQLRDLDQRYNTILQMYGEKAEEAEELRLDLEDVKNMYKTQIDELLRQRLS
